Positions count from the first letter of the chain named. Results are given in words; binding and its absence hold for the method and conditions named. Some entries that bind do so weakly or less than the wild type.
Assays:
[1] = biological target: MSLN(V)-rFc protein (human) (UniProt Q13421); assay: ELISA on coated MSLN(V)-Fc, anti-mouse IgG-HRP
[2] = biological target: mesothelin V variant (human) (UniProt Q13421); assay: stated in the shedding example (Example 9); assay not named
[3] = biological target: MSLN(M)-rFc protein (human) (UniProt Q13421); assay: ELISA on coated MSLN(M)-Fc, anti-mouse IgG-HRP
[4] = biological target: MSLN(V)-rFc protein (human) (UniProt Q13421); assay: ELISA on coated MSLN(V)-rFc (1 microgram/ml), anti-mouse IgG-HRP
[5] = biological target: MSLN(M)-rFc protein (human) (UniProt Q13421); assay: ELISA on coated MSLN(M)-rFc (1 microgram/ml), anti-mouse IgG-HRP

By UniProt entry, the sequences of proteins in these tests, tags left out. Where a name states a change or a piece, a line headed by the entry shows the natural chain unless it says otherwise.
UniProt Q13421: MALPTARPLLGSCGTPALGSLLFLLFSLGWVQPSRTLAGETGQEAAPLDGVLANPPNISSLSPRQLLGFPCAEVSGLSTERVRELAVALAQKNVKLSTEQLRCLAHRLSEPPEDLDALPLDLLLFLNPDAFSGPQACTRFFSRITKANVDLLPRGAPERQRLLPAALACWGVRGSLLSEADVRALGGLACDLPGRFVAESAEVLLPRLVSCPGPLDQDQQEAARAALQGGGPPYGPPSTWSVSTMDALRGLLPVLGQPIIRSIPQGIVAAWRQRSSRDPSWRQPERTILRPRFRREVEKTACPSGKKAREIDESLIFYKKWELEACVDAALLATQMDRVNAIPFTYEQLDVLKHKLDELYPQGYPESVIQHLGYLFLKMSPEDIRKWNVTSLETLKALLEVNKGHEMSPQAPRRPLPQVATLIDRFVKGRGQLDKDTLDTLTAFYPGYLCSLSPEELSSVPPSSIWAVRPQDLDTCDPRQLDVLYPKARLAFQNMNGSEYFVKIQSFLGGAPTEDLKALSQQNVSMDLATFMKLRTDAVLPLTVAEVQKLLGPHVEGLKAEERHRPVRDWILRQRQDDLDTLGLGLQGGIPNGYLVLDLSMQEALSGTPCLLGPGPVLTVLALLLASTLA

B1: 15B6 anti-mesothelin antibody (IgG2b) (antibody, V domains shown)
VH: EVQLQQSGPVLVKPGASVKISCKASGYSFTGYYMHWVRQSLVKRLEWIGRINPYTGVPSYKHNFKDKASLTVDKSSSTAYMELHSLTSEDSAVYYCARELGGYWGQGTTLTVSS
VL: QAVVTQESALTTSPGETVTLTCRSSTGAVTTGNYPNWVQEKPDHLFTGLIAGTNNRAPGVPARFSGSLIGDKAALTITGAQTEDEAIYFCALWFSSHWVFGGGTKLTVL
binding [1]: binds
binding [2]: binds
binding [3]: binds
binding [4]: binds
binding [5]: binds

B2: 2B4 anti-mesothelin antibody (IgG2a) (antibody, V domains shown)
VH: EVQLQQSGPELVKPGASVKISCKASGYPFTGHYMHWVKQGHVKSLEWIGRINPYTGAINYNQNFKDKASLSVEKSSSTAYMGLHSLTSEDSAVYYCVRDLGGGYWGQGTTLTVSS
VL: B1 VL with G32S, P35A, T82P, Y88F, F94Y
binding [3]: binds

B3: 7B5 anti-mesothelin antibody (IgG1) (antibody, V domains shown)
VH: B2 VH with A16T, S71T
VL: B1 VL with G32S, P35A, T82P, I87M, Y88F, S95G
binding [3]: binds

Reference: US20200247901A1
